This assay deals with T1, GST::SEM-5 (C. elegans) (UniProt P29355).
T1 sequence: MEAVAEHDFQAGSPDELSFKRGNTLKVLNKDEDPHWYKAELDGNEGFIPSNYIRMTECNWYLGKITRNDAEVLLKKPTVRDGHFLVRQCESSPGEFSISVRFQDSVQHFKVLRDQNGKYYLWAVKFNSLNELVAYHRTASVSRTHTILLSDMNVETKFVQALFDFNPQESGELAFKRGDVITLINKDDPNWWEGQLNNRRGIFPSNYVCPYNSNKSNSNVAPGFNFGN
The experiment in a line: pull-down; in vitro labelled protein from a reticulocyte lysate transcription/translation reaction pulled down with purified GST or GST fusion proteins (~200 ng per pull down); input set at 5%; only the target purified.

Amino acid sequences for entries named in this document (tags omitted).
UniProt P08659: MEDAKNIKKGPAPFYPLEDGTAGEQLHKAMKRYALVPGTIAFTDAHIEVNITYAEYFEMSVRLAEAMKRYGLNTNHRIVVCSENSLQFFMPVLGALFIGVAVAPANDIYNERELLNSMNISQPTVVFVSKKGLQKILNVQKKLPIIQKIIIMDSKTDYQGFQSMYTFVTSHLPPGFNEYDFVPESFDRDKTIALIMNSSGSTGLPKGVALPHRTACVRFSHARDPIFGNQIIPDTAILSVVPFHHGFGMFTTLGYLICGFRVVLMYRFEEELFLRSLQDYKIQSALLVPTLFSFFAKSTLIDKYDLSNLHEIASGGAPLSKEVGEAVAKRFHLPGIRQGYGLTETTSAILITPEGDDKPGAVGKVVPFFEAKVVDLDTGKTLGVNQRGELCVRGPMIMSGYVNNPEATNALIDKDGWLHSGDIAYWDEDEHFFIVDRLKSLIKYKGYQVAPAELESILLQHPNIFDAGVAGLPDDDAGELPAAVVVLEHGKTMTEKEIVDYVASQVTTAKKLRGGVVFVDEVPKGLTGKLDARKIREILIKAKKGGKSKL

These are yes or no findings as the source states them, for the method shown. In cells and extracts the contact can be indirect. Sequences can lack the tags named with a protein.

As for “labelled luciferase (from UniProt P08659 1-550) (enzyme)”, the binding entry was “no binding (tested: ~200 ng GST fusion protein per pull down)”.

For the origin of these results see article PMC2984460.
